Paper PMC11472053, “Structural basis of DNA recognition by BEN domain proteins reveals a role for oligomerization in unmethylated DNA selection by BANP” (Nucleic Acids Research, 2024)
Weaker means in comparison with the reference protein, sequence or condition of that experiment. Tags and fusion partners may be left off the protein sequences shown. For part of these data: Construct, isoform or probe ends are uncertain for at least one entry. For part of these data: At least one verdict was read from the data and is not stated in words by the source.

Experiments:
NACC1 BEN R468A (human) = target: T1, NACC1 BEN R468A (human) (UniProt Q96RE7); experiment: ITC; conditions: Kd N.A., text: <5% of WT affinity; ITC: 20 mM Tris pH 7.5, 200 mM NaCl, 2 mM beta-mercaptoethanol, 20 C; recombinant protein; residues 341-477; protein details: His-SUMO or His-MBP, cleaved
T1 sequence (looked up): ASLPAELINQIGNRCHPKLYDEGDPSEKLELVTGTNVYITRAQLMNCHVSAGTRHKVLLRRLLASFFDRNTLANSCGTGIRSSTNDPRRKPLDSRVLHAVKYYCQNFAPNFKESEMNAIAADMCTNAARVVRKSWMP

[1] = target: T2, BANP full-length WT (human) (UniProt Q8N9N5); experiment: EMSA; conditions: EMSA: 20 mM Tris pH 7.0, 200 mM NaCl, 2 mM DTT, 4 C, 1.2% agarose in TAE, recombinant protein, residues 1-519, protein details: His-SUMO or His-MBP, cleaved
T2 sequence (looked up): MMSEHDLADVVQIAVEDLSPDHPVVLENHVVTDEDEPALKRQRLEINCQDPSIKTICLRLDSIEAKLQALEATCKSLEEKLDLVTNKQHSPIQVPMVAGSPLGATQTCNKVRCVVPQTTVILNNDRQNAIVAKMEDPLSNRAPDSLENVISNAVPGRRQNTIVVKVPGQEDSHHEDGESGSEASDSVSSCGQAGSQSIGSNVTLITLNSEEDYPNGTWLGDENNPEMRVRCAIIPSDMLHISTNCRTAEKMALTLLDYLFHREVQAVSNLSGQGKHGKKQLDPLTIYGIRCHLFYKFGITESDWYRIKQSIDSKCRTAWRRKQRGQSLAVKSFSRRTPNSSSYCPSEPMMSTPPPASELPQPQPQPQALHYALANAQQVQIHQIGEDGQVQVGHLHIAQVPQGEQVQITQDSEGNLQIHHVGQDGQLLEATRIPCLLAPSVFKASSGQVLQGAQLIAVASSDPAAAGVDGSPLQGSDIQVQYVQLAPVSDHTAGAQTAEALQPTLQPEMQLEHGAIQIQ

Sequence: ATTACATGTAAT (double strand) [12-CATG]
- binding result (NACC1 BEN R468A (human)): binds more weakly

Sequence: ATCTCGCGAGAT (double strand) [12-mCGCG]
- binding result ([1]; 5-methyl-C at position 5 of each strand (palindrome; called hemi-methylated, one CpG methylated)): binds more weakly

Sequence: ATCTCGCGAGAT (double strand) [12-CGCG]
- binding result [1]: binds
